Measured values reported in PubChem BioAssay AID248 (DTP/NCI, 2004).
The list is a part of this screen's results and no random one: it gathers some chemical classes. Other doses and runs of a compound may be missing. T/C gives the treated animals as a percentage of the vehicle group. Some doses have a count of surviving animals in place of a T/C: the source files T/C as zero there, which appears to mark a toxic dose or a test without result, not a measured value. Counts of survivors are from the toxicity check (mostly the fifth day) where no day follows; animals may have died later. Schedules are NCI's codes, taken here to give the interval after Q, in days (D) or hours (H), and the number of doses after X. Where survival is the endpoint, the PubChem record calls one and a half times the control and up active, and a quarter to a half above the control has no call in these data; cut-offs in other NCI protocols can differ.

Test system: L1210 leukemia ip in BDF1 mice, survival T/C
Test: NCI In Vivo Anticancer Drug Screen. Data for tumor model L1210 Leukemia (intraperitoneal) in B6D2F1 (BDF1) mice
Conditions: T/C endpoint: mean survival time, higher T/C = longer survival
[1] = dose: 100.0 mg/kg/injection, schedule: Q01DX009 (ip), vehicle: Klucel (hydroxypropylcellulose) (HPC)
[2] = dose: 200.0 mg/kg/injection, schedule: Q01DX009 (ip), vehicle: Klucel (hydroxypropylcellulose) (HPC)
[3] = dose: 400.0 mg/kg/injection, schedule: Q01DX009 (ip), vehicle: Klucel (hydroxypropylcellulose) (HPC)

| SMILES | T/C [1] | T/C (dose: 100.0 mg/kg/injection, schedule: Q04DX003 (ip), vehicle: Klucel (hydroxypropylcellulose) (HPC)) | T/C [2] | T/C (dose: 200.0 mg/kg/injection, schedule: Q04DX003 (ip), vehicle: Klucel (hydroxypropylcellulose) (HPC)) | survivor count [3] | T/C (dose: 400.0 mg/kg/injection, schedule: Q04DX003 (ip), vehicle: Klucel (hydroxypropylcellulose) (HPC)) | T/C (dose: 100.0 mg/kg/injection, schedule: Q01DX009 (ip), vehicle: saline) | T/C (dose: 100.0 mg/kg/injection, schedule: Q04DX003 (ip), vehicle: saline) | T/C (dose: 200.0 mg/kg/injection, schedule: Q01DX009 (ip), vehicle: saline) | T/C (dose: 200.0 mg/kg/injection, schedule: Q04DX003 (ip), vehicle: saline) | T/C (dose: 250.0 mg/kg/injection, schedule: Q01DX009 (ip), vehicle: saline) | T/C [3] | T/C (dose: 400.0 mg/kg/injection, schedule: Q04DX003 (ip), vehicle: saline) |
| --- | --- | --- | --- | --- | --- | --- | --- | --- | --- | --- | --- | --- | --- |
| FC(Cl)C(F)(F)Sc1ccc(Cl)cc1 (stereo not given) | 106 % of control | 100 % of control | 97 % of control | 100 % of control | 3 of 6 | 107 % of control |  |  |  |  |  |  |  |
| O=C(N(CCCl)CCCl)C(F)(F)F | 106 % of control |  | 121 % of control |  |  |  | 127 % of control | 100 % of control | 125 % of control | 95 % of control | 138 % of control | 130 % of control | 95 % of control |
